At least one compound was matched to its structure with a doubt left.
Experiments:
Assay type in all cases: in vivo
[1] = system: Glutathione S-transferase, alpha 4 (Gsta4); test: Microarray gene expression, mouse intestine: Gsta4; conditions: diet 1 ppm Se, vs Se-deficient diets, negative = down
[2] = system: sprouty homolog 2 gene (Spry2); test: Microarray gene expression, mouse intestine: Spry2; conditions: diet 1 ppm Se, vs Se-deficient controls
From the text: (§1) Animal Care. Male C57BL/6J mice were housed singly and started on the experimental diets described below immediately after weaning (21 days of age). The mice were maintained in the Shared Aging Rodent Facility at the William S. Middleton Memorial Veterans Administration Medical Center (Madison, Wis.). Temperature and humidity were maintained at constant levels. Room light was controlled to provide 12-hr cycles of light and dark.
(§2) Experimental diets were created by Harlan Teklad (Madison, Wis.). Selenium content of the diets was determined by Covance Inc. (Madison, Wis.). Five (5) animals were included in each of the following treatment groups: a diet deficient in selenium (SD); a diet supplemented with selenomethionine (SM, obtained from Sigma, St. Louis, Mo.) such that the final selenium content of the diet was one (1) part per million; a diet supplemented with sodium selenite (SS, Sigma) such that the final concentration of selenium in this diet was one (1) part per million; or a diet supplemented with the yeast selenium SEL-PLEX (SP, Alltech, Lexington, Ky.), such that the final concentration of selenium in this diet was one (1) part per million. SEL-PLEX. […]
(§3) Tissue sample preparation and microarray analysis. […] For intestinal expression studies, the intestine was flushed twice with saline solution and small intestine was measured and divided in three equal segments. […]

Neurogenin 3 (Neurog3) = test: Microarray gene expression, mouse intestine: Neurog3; conditions: diet 1 ppm Se, vs selenium deficient
From the text: as §1, §2, §3

Prohibitin (Phb) = test: Microarray gene expression, mouse intestine: Phb; conditions: diet 1 ppm Se, vs selenium deficient
From the text: as §1, §2, §3

CORS-26 = test: Microarray gene expression, mouse cerebral cortex: CORS-26; conditions: diet 1 ppm Se, vs selenium deficient
From the text: as §1, §2, §3

[3] = system: type II iodothyronine deiodinase (Dio2); test: Microarray gene expression, mouse intestine: Dio2; conditions: diet 1 ppm Se, vs selenium deficient
From the text: as §1, §2, §3

selenoprotein N1 (Sepn1) = test: Microarray gene expression, mouse intestine: Sepn1; conditions: diet 1 ppm Se, vs selenium deficient
From the text: as §1, §2, §3

[4] = system: Glutathione S-transferase, alpha 3 (Gsta3); test: Microarray gene expression, mouse intestine: Gsta3; conditions: diet 1 ppm Se, vs Se-deficient diets, negative = down
From the text: as §1, §2, §3

Glyoxalase 1 (Glo1) = test: Microarray gene expression, mouse intestine: Glo1; conditions: diet 1 ppm Se, vs selenium deficient
From the text: as §1, §2, §3

[5] = system: Glutathione S-transferase, mu3 (Gstm3); test: Microarray gene expression, mouse intestine: Gstm3; conditions: diet 1 ppm Se, vs Se-deficient diets, negative = down
From the text: as §1, §2, §3

[6] = system: transforming growth factor beta 2 (TGF-β2); test: Microarray gene expression, mouse intestine: TGF-β2; conditions: diet 1 ppm Se, vs controls
From the text: as §1, §2, §3

[7] = system: LIM homeobox protein 8 gene (Lhx8); test: Microarray gene expression, mouse intestine: Lhx8; conditions: diet 1 ppm Se, vs selenium deficient
From the text: as §1, §2, §3

[8] = system: Growth arrest and DNA-damage-inducible 45 gamma (Gadd45g); test: Microarray gene expression, mouse intestine: Gadd45g; conditions: diet 1 ppm Se, vs selenium deficient, negative = down
From the text: as §1, §2, §3

## O=[Se](O)O [Sod-sel, sodium selenite]
[1]
  FC (fold change) expression of Gsta4: decreased expression
[2]
  Spry2 gene expression, fold reduction: no alteration in expression levels
Neurogenin 3 (Neurog3)
  Neurog3 expression, fold upregulated: no significant alteration
Prohibitin (Phb)
  expression of Prohibitin (Phb), fold downregulated: did not significantly alter
CORS-26
  expression of CORS-26, fold reduction: no alteration in expression levels
[3]
  expression of Dio2, fold down-regulation: no ability to alter the expression levels
Selenoprotein N1 (Sepn1)
  expression of selenoprotein N1 (Sepn1), fold increased: not significantly affected
[4]
  FC (fold change) expression of Gsta3: decreased expression
Glyoxalase 1 (Glo1)
  expression of Glo1, fold reduction: not significantly affected
[5]
  FC (fold change) expression of Gstm3: decreased expression
[6]
  expression of TGF-β2 (printed TGF-β), fold upregulated: not altered
[7]
  expression of Lhx8, fold upregulated: not significantly different
[8]
  FC (fold change) expression of Gadd45g: decreased expression
